Reference: the supplement of paper PMC10727501
This is one part of the list. Single values are uncertain here, since repeats match poorly.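 Free-swimming zebrafish larvae were assessed for O-bend response probability to dark flashes (naive: first five; training: remaining flashes across four 60-flash blocks; test: later 60-flash block) and for OMR turning toward alternating leftward/rightward LED motion. Six treated larvae were compared against sixty 0.1% DMSO controls; hits required |SSMD|≥2.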

Experiments:
Details in all cases: 10 µM; pre-incubation: 30-90 min
[1] = tested on: Danio rerio larvae (5 dpf, TLF); assay: OMR-Perf (SSMD vs DMSO vehicle); higher = higher than vehicle (e.g. higher dark-flash O-bend response probability, or better optomotor performance)
[2] = tested on: Danio rerio larvae (5 dpf, TLF); assay: Prob-Test (SSMD vs DMSO vehicle); higher = higher than vehicle (e.g. higher dark-flash O-bend response probability, or better optomotor performance)
[3] = tested on: Danio rerio larvae (5 dpf, TLF); assay: Prob-Naive (SSMD vs DMSO vehicle); higher = higher than vehicle (e.g. higher dark-flash O-bend response probability, or better optomotor performance)
[4] = tested on: Danio rerio larvae (5 dpf, TLF); assay: Prob-Train (SSMD vs DMSO vehicle); higher = higher than vehicle (e.g. higher dark-flash O-bend response probability, or better optomotor performance)

Compound | OMR-Perf [1] | Prob-Test [2] | Prob-Naive [3] | Prob-Train [4]
C=CC(=O)Nc1ccc2ncnc(Nc3cccc(Br)c3)c2c1 | 0.394 | -0.34 | -0.17 | -0.801
Cn1cc(-c2ccc3ncc(Cc4ccc5ncccc5c4)n3n2)cn1 | -0.427 | 0.463 | -0.274 | 0.395
CC(C)c1nc(CN(C)C(=O)N[C@H](C(=O)N[C@@H](Cc2ccccc2)C[C@H](O)[C@H](Cc2ccccc2)NC(=O)OCc2cncs2)C(C)C)cs1 [Ritonavir] | 0.209 | 0.366 | -0.00433 | 0.608
Nc1nc(CC(=O)Nc2ccc(CCNC[C@H](O)c3ccccc3)cc2)cs1 [Mirabegron] | 0.364 | -0.323 | -0.156 | 0.131
CCCCCCCCCCC[C@@H](C[C@@H]1OC(=O)[C@H]1CCCCCC)OC(=O)[C@H](CC(C)C)NC=O [Orlistat] | -0.155 | -0.0453 | 0.184 | 0.281
C[C@@H](NCCc1ccc(O)cc1)[C@@H](O)c1ccc(O)cc1.Cl [Ritodrine HCl] | 0.123 | 0.486 | 0.394 | -0.123
COc1ccc(CCC(=O)Nc2nc3ccc(Cl)cc3s2)cc1OC | -0.562 | -1.44 | -0.517 | -1.72
Nc1nc(Cl)nc2c1ncn2[C@@H]1O[C@H](CO)[C@@H](O)[C@@H]1F [Clofarabine] | 0.0915 | 0.0657 | 0.214 | 0.572
Cc1c[nH]c(-c2cnc(NCCNc3ccc(C#N)cn3)nc2-c2ccc(Cl)cc2Cl)n1.Cl | -0.242 | -1.03 | -0.17 | -0.0996
Cc1cc(Nc2nc(N[C@@H](C)c3ccc(F)cc3)c(C#N)cc2F)n[nH]1 | -1.02 | -1.35 | -0.13 | 0.0261

Single records, as listed above:
`C=CC(=O)Nc1ccc2ncnc(Nc3cccc(Br)c3)c2c1` in the list: OMR-Perf [1]: 0.394; Prob-Test [2]: -0.34; Prob-Naive [3]: -0.17; Prob-Train [4]: -0.801
`CCCCCCCCCCC[C@@H](C[C@@H]1OC(=O)[C@H]1CCCCCC)OC(=O)[C@H](CC(C)C)NC=O` [Orlistat] in the list: OMR-Perf [1]: -0.155; Prob-Test [2]: -0.0453; Prob-Naive [3]: 0.184; Prob-Train [4]: 0.281
